Test [1] deals with T1, T20S proteasome β-subunit with C-terminal 6X-His tag (PsmB-6x-His), from the T20S-αΔN construct (Thermoplasma acidophilum) (UniProt P28061).
T1 sequence: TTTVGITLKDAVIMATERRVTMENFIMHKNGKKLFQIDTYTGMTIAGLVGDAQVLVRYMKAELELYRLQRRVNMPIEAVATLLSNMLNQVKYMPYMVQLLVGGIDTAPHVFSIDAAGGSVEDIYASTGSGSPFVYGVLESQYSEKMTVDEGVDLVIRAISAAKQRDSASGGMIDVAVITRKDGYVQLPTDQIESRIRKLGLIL
The experiment in a line: negative-stain transmission electron microscopy; T20S-αΔN purified from HEK293 cells (6x-His tag antibody pulldown), 1% uranyl acetate; 522 particles aligned and classified.

Test [2] concerns the target T20S proteasome α-subunit lacking amino acids 2-11 (Δ2-11PsmA), from the T20S-αΔN construct (Thermoplasma acidophilum) (UniProt P25156). The test is described as above.
Test [3] concerns the target T1, T20S proteasome β-subunit with C-terminal 6X-His tag (PsmB-6x-His), from the T20S-αΔN construct (Thermoplasma acidophilum). The experiment in a line: co-IP; His-tagged β-subunit immunoprecipitated with 6x-His tag mouse monoclonal antibody and protein A/G agarose from extract of transfected HEK293 cells, eluted with 3% ammonia; Western blotting.
For test [4] the target is unchanged. The test is described as follows: pull-down; His-tagged β-subunit captured with HisPur Ni-NTA resin from extract of transfected HEK293 cells (20mM Tris/HCl pH 7.5, 100mM NaCl, 1.0% Triton X-100), eluted with 300mM imidazole; Western blotting.

No constants are given. Whether binding was seen depends on the method and setting. For some assays here: In cells and extracts the contact can be indirect. Some entries that bind do so weakly or less than the wild type. For some assays here: Tags and fused reporters may be left off the sequences shown.

For the molecule “T20S proteasome α-subunit lacking amino acids 2-11 (Δ2-11PsmA), from the T20S-αΔN construct (from UniProt P25156 4-233)”, the binding entry in test [1], in test [2], in test [3] and in test [4] was “binds” in each case.

B1: T20S proteasome β-subunit with C-terminal 6X-His tag (PsmB-6x-His), from the T20S-αΔN construct (protein, UniProt P28061 9-211)
chain: T1 sequence
As to B1, the binding entry in test [1] is “binds”.

(Values after PMC11449290.)
